Laboratory results from article PMC5501841.
These are yes or no findings as the source states them, for the method shown. Binding calls can cover weak binding; strength is not graded here. For some of these results: In cells and extracts the contact can be indirect. Each block holds one molecule with its values, some of them ahead of it.

The chains behind the UniProt entries cited, without tags or fusion partners. Where a name states a change or a piece, a line headed by the entry shows the natural chain unless it says otherwise. Residues count along the entry.
UniProt P02454: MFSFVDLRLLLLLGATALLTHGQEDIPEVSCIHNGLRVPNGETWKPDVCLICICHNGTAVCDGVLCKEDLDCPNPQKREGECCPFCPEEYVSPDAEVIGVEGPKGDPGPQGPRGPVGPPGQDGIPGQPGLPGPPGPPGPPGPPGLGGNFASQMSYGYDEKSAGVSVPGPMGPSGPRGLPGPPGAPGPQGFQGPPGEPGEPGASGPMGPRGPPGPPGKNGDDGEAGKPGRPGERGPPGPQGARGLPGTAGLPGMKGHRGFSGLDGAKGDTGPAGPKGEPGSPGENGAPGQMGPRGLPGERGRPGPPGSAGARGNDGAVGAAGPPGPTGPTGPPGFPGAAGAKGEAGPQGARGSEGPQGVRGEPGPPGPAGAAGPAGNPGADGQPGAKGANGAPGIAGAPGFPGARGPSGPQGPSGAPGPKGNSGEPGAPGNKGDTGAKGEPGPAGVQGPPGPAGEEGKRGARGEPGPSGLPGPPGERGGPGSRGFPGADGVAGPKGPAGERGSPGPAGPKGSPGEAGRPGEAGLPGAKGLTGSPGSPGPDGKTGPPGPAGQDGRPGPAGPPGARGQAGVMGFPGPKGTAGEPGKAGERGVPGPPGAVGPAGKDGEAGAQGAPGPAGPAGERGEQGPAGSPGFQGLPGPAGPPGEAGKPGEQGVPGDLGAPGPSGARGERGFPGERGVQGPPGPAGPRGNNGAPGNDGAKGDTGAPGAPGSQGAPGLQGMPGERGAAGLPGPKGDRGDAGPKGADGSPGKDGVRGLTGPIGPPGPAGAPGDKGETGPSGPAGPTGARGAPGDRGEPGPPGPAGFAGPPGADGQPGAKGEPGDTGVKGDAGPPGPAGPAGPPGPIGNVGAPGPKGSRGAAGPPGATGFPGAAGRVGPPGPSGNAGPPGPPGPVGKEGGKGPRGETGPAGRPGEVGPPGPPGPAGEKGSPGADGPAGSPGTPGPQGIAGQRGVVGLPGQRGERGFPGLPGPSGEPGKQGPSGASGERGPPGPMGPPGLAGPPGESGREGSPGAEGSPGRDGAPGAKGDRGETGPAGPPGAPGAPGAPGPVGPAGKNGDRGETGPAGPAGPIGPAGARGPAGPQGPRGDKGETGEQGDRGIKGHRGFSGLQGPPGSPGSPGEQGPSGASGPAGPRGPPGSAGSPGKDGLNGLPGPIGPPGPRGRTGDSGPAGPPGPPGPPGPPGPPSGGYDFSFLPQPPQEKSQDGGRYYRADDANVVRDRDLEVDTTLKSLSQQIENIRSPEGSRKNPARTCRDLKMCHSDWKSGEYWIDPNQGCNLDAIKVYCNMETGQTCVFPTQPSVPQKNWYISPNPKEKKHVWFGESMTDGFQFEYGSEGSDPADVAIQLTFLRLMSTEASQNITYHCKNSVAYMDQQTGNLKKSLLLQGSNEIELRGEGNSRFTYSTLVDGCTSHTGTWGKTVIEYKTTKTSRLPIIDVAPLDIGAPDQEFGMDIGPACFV
UniProt P04004, residues 20-478: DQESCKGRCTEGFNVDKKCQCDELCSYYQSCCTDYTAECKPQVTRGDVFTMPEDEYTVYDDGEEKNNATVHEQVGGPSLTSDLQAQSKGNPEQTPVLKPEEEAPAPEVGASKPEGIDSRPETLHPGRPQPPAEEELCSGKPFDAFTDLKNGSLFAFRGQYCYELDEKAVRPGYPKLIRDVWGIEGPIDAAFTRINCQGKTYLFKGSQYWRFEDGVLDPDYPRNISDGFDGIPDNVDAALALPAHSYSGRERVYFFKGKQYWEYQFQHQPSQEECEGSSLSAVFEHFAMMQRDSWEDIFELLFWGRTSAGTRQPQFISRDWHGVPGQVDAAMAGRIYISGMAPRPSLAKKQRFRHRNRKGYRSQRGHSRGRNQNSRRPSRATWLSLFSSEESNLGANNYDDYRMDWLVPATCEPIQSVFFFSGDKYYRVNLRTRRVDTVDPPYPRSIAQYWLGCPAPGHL
UniProt O15072: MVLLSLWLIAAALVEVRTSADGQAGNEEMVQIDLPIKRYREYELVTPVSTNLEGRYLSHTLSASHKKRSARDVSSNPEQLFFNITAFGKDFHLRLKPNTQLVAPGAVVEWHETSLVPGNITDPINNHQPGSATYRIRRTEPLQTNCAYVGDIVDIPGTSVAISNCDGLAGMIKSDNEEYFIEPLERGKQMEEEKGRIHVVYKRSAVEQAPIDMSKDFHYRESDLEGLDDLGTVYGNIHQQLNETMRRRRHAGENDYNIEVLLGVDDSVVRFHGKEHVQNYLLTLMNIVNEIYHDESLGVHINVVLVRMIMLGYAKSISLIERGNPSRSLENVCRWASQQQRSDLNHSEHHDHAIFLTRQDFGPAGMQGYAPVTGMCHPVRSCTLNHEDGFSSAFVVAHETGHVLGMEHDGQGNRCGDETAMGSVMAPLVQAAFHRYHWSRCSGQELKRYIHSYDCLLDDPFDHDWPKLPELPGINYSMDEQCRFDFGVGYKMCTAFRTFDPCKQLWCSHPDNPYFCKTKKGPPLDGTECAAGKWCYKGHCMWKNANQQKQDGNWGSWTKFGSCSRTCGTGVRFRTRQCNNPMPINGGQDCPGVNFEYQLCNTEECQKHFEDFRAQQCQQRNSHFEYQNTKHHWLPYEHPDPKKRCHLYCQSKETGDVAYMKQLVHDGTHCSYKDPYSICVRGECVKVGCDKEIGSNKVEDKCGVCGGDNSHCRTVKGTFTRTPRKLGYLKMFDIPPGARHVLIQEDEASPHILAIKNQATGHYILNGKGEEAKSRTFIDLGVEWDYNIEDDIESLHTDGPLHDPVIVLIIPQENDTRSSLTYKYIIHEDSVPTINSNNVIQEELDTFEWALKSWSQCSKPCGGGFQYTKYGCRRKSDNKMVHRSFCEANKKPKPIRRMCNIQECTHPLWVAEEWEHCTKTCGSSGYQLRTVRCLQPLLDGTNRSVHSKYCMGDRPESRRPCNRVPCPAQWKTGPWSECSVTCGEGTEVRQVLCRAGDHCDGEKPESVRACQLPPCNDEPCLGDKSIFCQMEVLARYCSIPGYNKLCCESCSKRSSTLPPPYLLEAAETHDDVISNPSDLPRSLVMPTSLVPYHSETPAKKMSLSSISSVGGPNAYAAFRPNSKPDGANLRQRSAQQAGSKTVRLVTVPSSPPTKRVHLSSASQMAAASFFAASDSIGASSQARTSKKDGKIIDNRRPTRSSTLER
UniProt P49767: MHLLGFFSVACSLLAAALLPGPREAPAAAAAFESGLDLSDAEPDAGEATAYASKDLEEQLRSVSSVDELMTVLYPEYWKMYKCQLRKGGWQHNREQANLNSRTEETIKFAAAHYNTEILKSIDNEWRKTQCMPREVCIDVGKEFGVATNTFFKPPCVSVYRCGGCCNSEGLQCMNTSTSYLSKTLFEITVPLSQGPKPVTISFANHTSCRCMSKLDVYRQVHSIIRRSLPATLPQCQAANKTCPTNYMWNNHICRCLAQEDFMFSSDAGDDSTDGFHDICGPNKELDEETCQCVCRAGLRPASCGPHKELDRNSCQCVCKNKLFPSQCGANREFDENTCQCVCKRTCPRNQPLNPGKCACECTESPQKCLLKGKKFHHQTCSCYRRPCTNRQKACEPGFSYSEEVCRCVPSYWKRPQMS

Legend:
collagen type 1 = collagen type 1 (UniProt P02454); assay: ELISA; solid-phase binding assay; collagen type 1, gelatin or fibronectin coated at 20 μg/ml in PBS on Maxisorp plates; pro-VEGF-C in solution, detected with anti-VEGF-C antiserum 6; both purified
[1] = target: recombinant vitronectin-Fc (UniProt P04004); assay: ELISA; solid-phase binding assay; vitronectin-Fc, human VEGFR-3/IgG fusion proteins or BSA coated at 20 μg/ml in PBS; CCBE1-175-V5 at 10 μg/ml in PBS overnight at 4 °C with 1 mM CaCl2; detected with anti-V5 antibody; both purified
[2] = target: ADAMTS3 R565Q variant (human) (UniProt O15072); assay: co-IP; conditioned media of 293T-CCBE1-StrepIII cells transfected with ADAMTS3 or ADAMTS3-R565Q; ADAMTS3 immunoprecipitated with antibodies/Protein G sepharose or streptactin sepharose; detection with streptactin-HRP
[3] = target: wild type ADAMTS3 (human) (UniProt O15072); assay: as above

binding (collagen type 1): binds
Molecule: pro-VEGF-C (recombinant protein) (from UniProt P49767) (ligand)

binding [1]: binds
Molecule: N-terminal domain of CCBE1 (CCBE1-175-V5) (from UniProt Q6UXH8) (domain or fragment)

binding [2]: binds weakly | binding [3]: binds
B1: CCBE1-StrepIII (protein, UniProt Q6UXH8 35-406)
chain: YREEPEDGDREICSESKIATTKYPCLKSSGELTTCYRKKCCKGYKFVLGQCIPEDYDVCAEAPCEQQCTDNFGRVLCTCYPGYRYDRERHRKREKPYCLDIDECASSNGTLCAHICINTLGSYRCECREGYIREDDGKTCTRGDKYPNDTGHEKSENMVKAGTCCATCKEFYQMKQTVLQLKQKIALLPNNAADLGKYITGDKVLASNTYLPGPPGLPGGQGPPGSPGPKGSPGFPGMPGPPGQPGPRGSMGPMGPSPDLSHIKQGRRGPVGPPGAPGRDGSKGERGAPGPRGSPGPPGSFDFLLLMLADIRNDITELQEKVFGHRTHSSAEEFPLPQEFPSYPEAMDLGSGDDHPRRTETRDLRAPRDFYP
